Assay: general procedure: Fmoc solid-phase peptide synthesis; Rink-amide ChemMatrix; DIC and oxyma; HBTU/DIPEA for fragment coupling
Settings: whole synthesis, detection at 490 nm (prep), scale 0.03 mmol

UBI29-41 conjugated with MR-AAPV-K(NBD)-PEG-OH (methyl red quencher, NBD label; enzyme cleavable peptide sequence)
final HPLC purity: >95%

— patent publication US10520504B2 (priority 2014, dated 2019)
